# Primary screen of a compound library

Data taken from ChEMBL document CHEMBL3988442, “University of Dundee, Small-Polar-MMV Screening Library” (2021).

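Viability assay of Plasmodium falciparum sporozoites; the read-out is not stated. The concentration is filed as 10 mM, unlikely as a test dose, so the dose is not known. Higher reads as lower viability (inferred: compounds with an IC50 in retests scored well above the rest). Strong results were mostly tested again. Size under these conditions: about 34,000 compounds, about 280 of them at 50% or above in at least one test.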

Results are given as percent effect.
The record does not define 0% and 100%; most values in the screen are far below 50% and negative numbers occur (in some assays of this library far below -100).
Compounds were drawn at random from those tested, without regard to their results.
Two or more numbers in one place are separate tests of the same structure; such repeats can differ widely.

| compound | effect |
|---|---|
| `O=C(O)C(F)(F)F.c1csc(CN2CCn3c(Cn4cncn4)cnc3C2)c1` | 11.08% |
| `Cc1cc(C)cc(NS(=O)(=O)c2cc3c(c(C(=O)O)c2)OCCO3)c1` | -15.99% |
| `CC(=O)N1CCN(C(=O)CNc2ccc3sccc3c2)CC1` | -1.371% |
| `COc1ccc(C)cc1CC(=O)N1CCN(CC(C)O)CC1` (centres undefined) | -7.467% |
| `CC[C@H](C)[C@H](N)C(=O)N1CC(=O)c2sc(NCc3ccccc3)nc2C1` | 9.738% |
| `CCOCC(=O)N1CCC2(CC1)COCCN2CCN(C)C.O=C(O)C(F)(F)F.O=C(O)C(F)(F)F` | -9.351% and 44.52% and -19.47% |
| `Cn1cnc(S(=O)(=O)Nc2cc(C(N)=O)ccc2Cl)c1` | -9.813% |
| `CC1CCN(S(=O)(=O)c2cccn(CC(=O)NC3CCCC3)c2=O)CC1` | 1.299% |
| `COCCC(=O)NCc1cccnc1-n1cnc2ccccc21` | -23.04% |
| `CC(C)n1cc(CN2CCCN(C(=O)CC3CCCCC3)CC2)cn1` | 11.59% |
| `O=C(O)C(F)(F)F.[H][C@@]12C[C@@H](c3nc(C)no3)O[C@]1([H])CN(Cc1ccc3c(c1)OCO3)C2` | 2.47% |
| `Cc1cc(C)n(CC2CN(Cc3cscn3)CCO2)n1` (centres undefined) | 16.98% |
| `CN(Cc1nnc2n1CCC2)C(=O)c1ccc2c(c1)CCO2` | 5.795% |
| `NC[C@H]1CC[C@H](C(NC(=O)CC2CCCCC2)c2ccccn2)CC1` (some centres undefined) | 8.368% |
| `CC1(Cc2ccc(F)cc2)Cc2cc(C(=O)NCCO)ccc2O1` (centres undefined) | -4.079% |
| `Cl.O=C1CC2(CCCNC2)C(=O)N1Cc1cccc(Cl)c1` (centres undefined) | 7.443% |
| `CC(C)c1[nH]c2ncccc2c1CN1CCN(S(=O)(=O)N(C)C)CC1` | -1.098% |
| `CCn1ncc(C(=O)NCCc2nc(-c3ccncc3)n[nH]2)c1C` | -11.43% |
| `Cn1cnc2c1CCN(Cc1nc(-c3ccco3)no1)C2` | 12.07% and 12.49% |
| `O=C(c1cccn1Cc1cccs1)N1CCC(C(=O)N2CCCC2)CC1` | -7.33% |
| `COc1ccc(C(=O)N2C[C@@H](CN3CCCC3)[C@@H](CO)C2)c(C)c1` | 14.88% |
| `OC(CNc1cncc(OCc2ccccc2)n1)c1ccco1` (centres undefined) | 1.862% |
| `Cc1cnc(CN(C)C2CCN(CCCc3cnn(C)c3)C2)o1` (centres undefined) | 10.38% |
| `O=C(O)C(F)(F)F.[H][C@]12CCN(C(=O)c3ccco3)[C@@]1([H])CC[C@@H](COCCN1CCCC1)O2` | -16.05% |
| `Fc1ccc(-c2nccnc2C2CCCNC2)cc1` (centres undefined) | 15.36% |
| `CCc1n[nH]c(C2CN(C(=O)c3ccsc3)CCO2)n1` (centres undefined) | -10.17% |
| `CCc1noc(C(C)N2CCN(CC(C)C)CC2)n1` (centres undefined) | 19.19% |
| `CCN(CCS(=O)(=O)c1ccc(Cl)cc1)Cc1ccc(OC)c(OC)c1` | -16.56% |
| `Cc1cc(C[C@@H]2CCC[C@H]2NCc2ccccc2C(F)(F)F)on1.O=C(O)CC(O)(CC(=O)O)C(=O)O` | -13.15% |
| `CC(NC(=O)c1ccc(=O)n(C)c1)c1ccc(OCC2CC2)c(F)c1` (centres undefined) | -9.052% |
| `O=C(O)C(F)(F)F.O=C(O)C(F)(F)F.O=C(O)C(F)(F)F.[H][C@@]12CCN(Cc3cnn(C)c3)[C@@]1([H])CCN2Cc1cccc(C)n1` | 4.603% |
| `c1cnnc(N2CCCC2CNc2cnc3ccccc3n2)c1` (centres undefined) | 6.326% |
| `c1cnc(-c2cnc(N3CCSCC3)nc2C2CC2)cn1` | -10.73% |
| `CC1N(CC2CC2)C(=O)COC12CCN(Cc1nccs1)CC2.O=C(O)C(F)(F)F` (centres undefined) | -8.138% |
| `O=C(CCCOc1cccc(F)c1)N1CCCC(n2cncn2)C1` (centres undefined) | -23.09% |
| `Cn1c(Cn2cccn2)nnc1C1CCCN(c2ccncc2)C1` (centres undefined) | -16.12% |
| `COc1ccc(C2CCN(C(=O)c3ncccc3OC(C)C)C2)cc1` (centres undefined) | -5.257% |
| `COc1ccc(C)cc1NC(=O)Nc1cnc(N2CCN(C)CC2)nc1` | -9.944% |
| `c1cc(-c2nc(C3CCN(Cc4ccsc4)CC3)no2)ccn1` | 4.526% |
| `O=C(O)C(F)(F)F.O=C(O)C(F)(F)F.O=C(O)c1cc2c(nc1-c1ccoc1)CCN(Cc1ccco1)CC2` | 22.56% |
| `Cc1nc(NCc2cccc(F)c2)cc(C2CCNCC2)n1.Cl` | 0.8951% |
| `CCn1cnnc1C1CCN(C(=O)c2ccc3cc[nH]c3c2)CC1` | -8.681% |
| `Br.Cc1cccc(N(CC(=O)c2ccccc2)C2=NCCCCC2)c1` | -18.44% |
| `CS(=O)(=O)N1CCC[C@]2(C[C@@H](Oc3ncccc3F)CO2)C1.O=C(O)C(F)(F)F` | -17.56% |
| `COc1cccc(-c2noc(C3CCN(Cc4cccs4)C3)n2)c1.Cl` (centres undefined) | 19.89% and 29.92% and 19.71% |
| `CN(Cc1cccc2cccnc12)C1CCS(=O)(=O)C1.O=C(O)CC(O)(CC(=O)O)C(=O)O` (centres undefined) | 12.68% |
| `CCn1cc2c(n1)CN(C(=O)c1ccncc1)CC2COCC1CC1.O=C(O)C(F)(F)F` (centres undefined) | 9.199% |
| `Cc1cccc(C(=O)N2CCn3cc(CN4CCCCC4)nc3C2)n1` | 3.007% |
| `O=C(c1ccc(NC2CC2)nc1)N1CCC(Nc2cccnn2)CC1` | 1.667% |
| `Cc1ncncc1C(=O)N1CCCC(Cc2nccs2)C1` (centres undefined) | 0.7621% |
| `O=C(Cn1cccn1)N1CCC(Oc2ccc(C(F)(F)F)cn2)CC1` | -2.417% |
| `CCNC(c1ccc(Br)cc1)c1cccnc1` (centres undefined) | 6.321% |
| `COc1ccc(Oc2nccnc2C2CCN(C(C)=O)CC2)cc1` | -17.47% |
| `COCC(=O)N1C[C@@H](O)[C@H](N2CCN(c3ccccc3)CC2)C1` | 5.51% |
| `Cc1nc(NCC2CC2)nc2c1COCC21CCN(CC(=O)N(C)C)C1` (centres undefined) | 0.6014% |
| `CSC1(CNC(=O)N(C)Cc2sccc2C)CCOCC1` | -21.02% and -25.77% |
| `O=C(c1csc(-c2ccccn2)n1)N1CCCC1Cn1cccn1` (centres undefined) | -3.488% |
| `O=C(O)C(F)(F)F.O=C(O)C(F)(F)F.c1ccc(CN2CCn3c(Cn4cncn4)cnc3C2)nc1` | 8.505% |
| `N#CCCN(C(=O)CN1CCCC1Cc1ccccc1)c1ccccc1` (centres undefined) | -20.97% |
| `CCc1nnc(Nc2cc(C)nc(C3CCN(c4ccncn4)C3)n2)s1` (centres undefined) | 11.99% |
| `Cn1nc(C2CN(C(=O)c3cscn3)C2)c2nccnc21` | 1.066% |
| `CCc1nccn1C1CCCN(C(=O)c2ccc(NC3CC3)nc2)C1` (centres undefined) | -7.514% |
| `CCNC(=O)N1CCC(Cc2cccc(C(N)=O)c2)C1` (centres undefined) | -9.561% |
| `CC(C(=O)NCc1cn2cc(Br)ccc2n1)S(C)(=O)=O` (centres undefined) | -8.824% |
| `CC(=O)c1cccc(NC(=O)NCCOCC2CC2)c1` | -12.11% |
| `Cc1cc(C)n(CC(C)CNC(=O)NCc2c(C)cc(C)[nH]c2=O)n1` (centres undefined) | -15.25% |
| `Cc1nc(C)n(C2CCCN(C(=O)Cc3cn4ccccc4n3)C2)n1` (centres undefined) | -13.03% |
| `O=C(O)C(F)(F)F.O=C(O)C(F)(F)F.O=C(O)C(F)(F)F.[H][C@@]12CN(Cc3cnn(C)c3)C[C@]1([H])OCCN2CCN(C)C` | 5.306% |
| `Cc1ccc(C(O)CNCCn2cccn2)cc1C` (centres undefined) | -34.31% |
| `O=C(c1csc(C2CC2)n1)N1CCCCC1Cn1cccn1` (centres undefined) | -1.623% |
| `Cn1cccc1-c1cc(C(=O)N2CCCC2c2cccnc2)[nH]n1` (centres undefined) | -3.015% |
| `CC1CN(CC2CCCCC2)CCN1c1ccc2nncn2n1` (centres undefined) | 15.3% |
| `CCc1nccc(CN2CCC(CNC(=O)[C@H]3CC[C@H](C)CC3)C2)n1` (some centres undefined) | -10.79% |
| `COc1cccc(C(=O)Nc2ccc(OC3CCN(C)CC3)cc2)c1` | 24.26% and 49.56% and 59.7% |
| `[H][C@@]12CCN(C(=O)CC)C[C@]1([H])OCCN(Cc1ccc(OC)cc1)C2=O` | 2.309% |
| `Cc1nc(CN2CCCC2c2nc(C(C)C)no2)cs1` (centres undefined) | 8.511% |
| `CCN(CC(=O)NC1(C)CCS(=O)(=O)C1)Cc1ccc(OC)c(F)c1` (centres undefined) | 9.201% |
| `NC(=O)CN1CCCC1c1cncc(Oc2ccc(Cl)cc2)n1` (centres undefined) | -0.03116% |
| `O=C(O)C(F)(F)F.O=C(O)C(F)(F)F.[H][C@@]12CN(Cc3nccs3)C[C@]1([H])OCCN2c1ccc(C)nn1` | -11.06% |